# Data as given in the supplement of paper PMC11006884.
# Protein sequences, listed by entry. Tags and fused reporters are not part of them. Lines headed by an entry give the natural chain unless they say otherwise; changes in a name come on top.
# UniProt Q9UKA8, whole entry: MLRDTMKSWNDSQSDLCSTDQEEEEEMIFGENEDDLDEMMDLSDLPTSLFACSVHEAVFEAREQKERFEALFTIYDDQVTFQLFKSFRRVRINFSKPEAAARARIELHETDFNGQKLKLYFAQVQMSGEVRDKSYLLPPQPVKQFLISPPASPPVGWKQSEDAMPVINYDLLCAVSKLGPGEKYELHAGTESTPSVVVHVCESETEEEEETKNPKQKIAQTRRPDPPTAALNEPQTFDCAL
# UniProt Q9UNS2: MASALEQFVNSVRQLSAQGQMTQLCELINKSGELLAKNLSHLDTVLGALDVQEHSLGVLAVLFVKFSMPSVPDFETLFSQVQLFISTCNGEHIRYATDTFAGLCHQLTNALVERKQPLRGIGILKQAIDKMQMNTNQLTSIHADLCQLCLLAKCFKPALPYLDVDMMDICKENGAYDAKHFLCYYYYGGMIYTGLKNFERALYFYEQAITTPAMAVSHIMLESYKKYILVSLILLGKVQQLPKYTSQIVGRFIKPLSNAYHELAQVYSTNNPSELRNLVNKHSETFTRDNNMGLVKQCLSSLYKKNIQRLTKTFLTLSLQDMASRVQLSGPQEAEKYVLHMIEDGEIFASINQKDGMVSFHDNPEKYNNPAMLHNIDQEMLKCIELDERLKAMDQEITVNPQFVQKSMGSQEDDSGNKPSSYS
# UniProt Q9Y2D4: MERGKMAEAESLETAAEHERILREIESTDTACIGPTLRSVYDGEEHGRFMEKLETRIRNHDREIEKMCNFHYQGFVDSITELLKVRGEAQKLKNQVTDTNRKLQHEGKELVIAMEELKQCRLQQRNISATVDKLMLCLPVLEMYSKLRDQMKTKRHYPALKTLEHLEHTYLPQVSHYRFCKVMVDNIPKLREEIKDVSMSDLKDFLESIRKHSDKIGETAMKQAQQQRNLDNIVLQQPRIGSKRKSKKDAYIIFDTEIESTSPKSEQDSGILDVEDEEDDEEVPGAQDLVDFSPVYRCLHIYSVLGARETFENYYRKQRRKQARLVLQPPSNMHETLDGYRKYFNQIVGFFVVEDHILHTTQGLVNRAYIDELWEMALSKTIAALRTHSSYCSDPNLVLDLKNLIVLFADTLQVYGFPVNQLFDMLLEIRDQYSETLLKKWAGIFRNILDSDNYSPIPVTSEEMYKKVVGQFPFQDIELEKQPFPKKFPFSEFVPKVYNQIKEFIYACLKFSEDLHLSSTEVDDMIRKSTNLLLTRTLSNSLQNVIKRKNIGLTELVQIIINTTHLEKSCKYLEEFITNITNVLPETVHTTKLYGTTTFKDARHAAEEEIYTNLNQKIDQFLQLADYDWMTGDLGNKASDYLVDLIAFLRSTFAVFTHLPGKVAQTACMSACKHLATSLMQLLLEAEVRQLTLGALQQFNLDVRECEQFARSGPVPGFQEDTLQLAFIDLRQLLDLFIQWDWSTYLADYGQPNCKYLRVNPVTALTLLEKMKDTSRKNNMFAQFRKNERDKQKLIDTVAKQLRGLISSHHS
# UniProt Q9UII4: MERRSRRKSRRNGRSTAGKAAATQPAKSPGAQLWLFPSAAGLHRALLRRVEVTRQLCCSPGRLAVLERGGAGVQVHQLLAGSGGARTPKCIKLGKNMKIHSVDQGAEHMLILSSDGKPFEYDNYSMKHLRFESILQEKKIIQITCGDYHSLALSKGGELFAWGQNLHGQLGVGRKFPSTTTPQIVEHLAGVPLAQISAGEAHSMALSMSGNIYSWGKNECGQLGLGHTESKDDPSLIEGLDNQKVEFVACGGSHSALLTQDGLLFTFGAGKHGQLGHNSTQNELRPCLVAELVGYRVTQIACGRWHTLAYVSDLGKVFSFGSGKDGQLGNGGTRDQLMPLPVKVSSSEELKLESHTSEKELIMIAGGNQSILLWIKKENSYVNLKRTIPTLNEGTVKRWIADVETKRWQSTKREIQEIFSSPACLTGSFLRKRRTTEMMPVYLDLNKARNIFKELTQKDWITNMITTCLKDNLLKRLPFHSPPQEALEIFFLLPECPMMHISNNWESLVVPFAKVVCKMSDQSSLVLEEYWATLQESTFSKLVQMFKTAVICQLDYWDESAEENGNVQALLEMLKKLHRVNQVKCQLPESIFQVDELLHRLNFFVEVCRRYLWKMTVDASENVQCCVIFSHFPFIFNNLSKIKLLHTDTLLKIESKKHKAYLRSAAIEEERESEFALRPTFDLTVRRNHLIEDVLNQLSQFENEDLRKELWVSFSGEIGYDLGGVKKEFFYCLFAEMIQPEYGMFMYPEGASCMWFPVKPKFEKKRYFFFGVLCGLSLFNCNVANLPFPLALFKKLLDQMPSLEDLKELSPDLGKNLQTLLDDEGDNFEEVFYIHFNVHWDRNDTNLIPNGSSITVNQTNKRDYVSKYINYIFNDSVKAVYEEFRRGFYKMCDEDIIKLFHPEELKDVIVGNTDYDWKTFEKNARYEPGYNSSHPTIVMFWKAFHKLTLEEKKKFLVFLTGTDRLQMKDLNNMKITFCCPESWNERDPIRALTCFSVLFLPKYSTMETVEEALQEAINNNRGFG
# UniProt Q9UIF9: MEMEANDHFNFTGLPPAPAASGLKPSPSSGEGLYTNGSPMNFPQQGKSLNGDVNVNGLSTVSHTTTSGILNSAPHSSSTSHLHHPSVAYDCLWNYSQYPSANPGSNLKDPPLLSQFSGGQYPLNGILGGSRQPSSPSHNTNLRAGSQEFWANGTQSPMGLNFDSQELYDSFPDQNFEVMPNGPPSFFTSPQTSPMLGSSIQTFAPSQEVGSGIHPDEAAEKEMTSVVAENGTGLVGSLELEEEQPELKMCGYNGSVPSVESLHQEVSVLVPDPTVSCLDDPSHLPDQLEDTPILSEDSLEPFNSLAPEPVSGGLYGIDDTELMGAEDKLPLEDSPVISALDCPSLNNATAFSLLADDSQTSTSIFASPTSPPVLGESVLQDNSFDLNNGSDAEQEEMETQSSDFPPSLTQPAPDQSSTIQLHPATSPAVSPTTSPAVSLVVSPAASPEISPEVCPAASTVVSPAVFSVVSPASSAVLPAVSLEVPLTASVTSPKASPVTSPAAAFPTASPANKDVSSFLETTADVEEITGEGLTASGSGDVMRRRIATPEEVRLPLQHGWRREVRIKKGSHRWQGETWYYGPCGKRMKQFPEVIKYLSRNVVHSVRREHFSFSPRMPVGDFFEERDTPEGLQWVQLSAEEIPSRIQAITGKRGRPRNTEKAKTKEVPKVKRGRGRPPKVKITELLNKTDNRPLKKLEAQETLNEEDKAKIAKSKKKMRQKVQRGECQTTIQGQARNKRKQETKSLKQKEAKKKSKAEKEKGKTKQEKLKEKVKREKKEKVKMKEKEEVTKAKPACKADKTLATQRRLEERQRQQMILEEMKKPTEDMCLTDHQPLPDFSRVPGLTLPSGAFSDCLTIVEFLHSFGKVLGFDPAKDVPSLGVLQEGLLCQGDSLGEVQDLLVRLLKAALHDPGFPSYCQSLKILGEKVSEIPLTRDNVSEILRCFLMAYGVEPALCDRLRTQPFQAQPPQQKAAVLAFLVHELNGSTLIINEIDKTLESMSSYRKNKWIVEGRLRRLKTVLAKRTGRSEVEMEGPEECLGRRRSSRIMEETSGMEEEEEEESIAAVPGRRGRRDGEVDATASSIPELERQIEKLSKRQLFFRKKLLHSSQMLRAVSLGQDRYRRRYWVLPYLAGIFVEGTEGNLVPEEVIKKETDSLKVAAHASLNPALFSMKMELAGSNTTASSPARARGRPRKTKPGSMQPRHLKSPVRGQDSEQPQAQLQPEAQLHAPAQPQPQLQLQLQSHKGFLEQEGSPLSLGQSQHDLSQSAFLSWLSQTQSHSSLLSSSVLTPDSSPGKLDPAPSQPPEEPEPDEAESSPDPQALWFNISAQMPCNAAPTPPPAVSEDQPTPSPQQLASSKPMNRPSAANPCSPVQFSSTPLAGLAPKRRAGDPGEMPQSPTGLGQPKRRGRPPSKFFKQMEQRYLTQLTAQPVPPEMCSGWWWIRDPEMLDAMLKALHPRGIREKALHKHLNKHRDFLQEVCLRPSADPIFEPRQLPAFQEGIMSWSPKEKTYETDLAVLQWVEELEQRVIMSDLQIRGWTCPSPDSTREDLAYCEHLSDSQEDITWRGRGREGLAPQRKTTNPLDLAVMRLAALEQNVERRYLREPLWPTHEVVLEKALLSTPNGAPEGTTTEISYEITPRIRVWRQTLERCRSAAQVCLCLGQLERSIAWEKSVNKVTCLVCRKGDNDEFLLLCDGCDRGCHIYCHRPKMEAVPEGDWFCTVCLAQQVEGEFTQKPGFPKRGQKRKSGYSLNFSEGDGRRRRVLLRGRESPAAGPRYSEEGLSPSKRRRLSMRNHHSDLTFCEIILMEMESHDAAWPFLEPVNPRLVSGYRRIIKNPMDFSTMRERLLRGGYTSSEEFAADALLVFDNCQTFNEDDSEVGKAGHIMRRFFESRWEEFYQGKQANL
# UniProt Q9Y3B2, whole entry, looked up: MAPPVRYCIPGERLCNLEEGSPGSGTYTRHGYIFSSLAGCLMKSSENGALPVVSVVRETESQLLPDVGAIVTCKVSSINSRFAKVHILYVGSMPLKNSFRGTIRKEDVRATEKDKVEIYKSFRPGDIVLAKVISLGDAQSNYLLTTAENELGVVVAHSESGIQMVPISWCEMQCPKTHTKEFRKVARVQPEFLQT
# UniProt Q9Y314: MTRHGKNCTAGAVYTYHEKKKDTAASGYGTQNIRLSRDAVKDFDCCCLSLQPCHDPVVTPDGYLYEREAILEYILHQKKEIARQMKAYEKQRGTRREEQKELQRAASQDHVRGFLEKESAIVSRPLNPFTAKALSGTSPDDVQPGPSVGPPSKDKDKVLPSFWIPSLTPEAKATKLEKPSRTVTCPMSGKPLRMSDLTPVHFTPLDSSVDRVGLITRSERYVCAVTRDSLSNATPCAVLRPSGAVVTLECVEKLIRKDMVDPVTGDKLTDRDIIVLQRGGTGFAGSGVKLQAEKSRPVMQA
# UniProt Q9Y2K2: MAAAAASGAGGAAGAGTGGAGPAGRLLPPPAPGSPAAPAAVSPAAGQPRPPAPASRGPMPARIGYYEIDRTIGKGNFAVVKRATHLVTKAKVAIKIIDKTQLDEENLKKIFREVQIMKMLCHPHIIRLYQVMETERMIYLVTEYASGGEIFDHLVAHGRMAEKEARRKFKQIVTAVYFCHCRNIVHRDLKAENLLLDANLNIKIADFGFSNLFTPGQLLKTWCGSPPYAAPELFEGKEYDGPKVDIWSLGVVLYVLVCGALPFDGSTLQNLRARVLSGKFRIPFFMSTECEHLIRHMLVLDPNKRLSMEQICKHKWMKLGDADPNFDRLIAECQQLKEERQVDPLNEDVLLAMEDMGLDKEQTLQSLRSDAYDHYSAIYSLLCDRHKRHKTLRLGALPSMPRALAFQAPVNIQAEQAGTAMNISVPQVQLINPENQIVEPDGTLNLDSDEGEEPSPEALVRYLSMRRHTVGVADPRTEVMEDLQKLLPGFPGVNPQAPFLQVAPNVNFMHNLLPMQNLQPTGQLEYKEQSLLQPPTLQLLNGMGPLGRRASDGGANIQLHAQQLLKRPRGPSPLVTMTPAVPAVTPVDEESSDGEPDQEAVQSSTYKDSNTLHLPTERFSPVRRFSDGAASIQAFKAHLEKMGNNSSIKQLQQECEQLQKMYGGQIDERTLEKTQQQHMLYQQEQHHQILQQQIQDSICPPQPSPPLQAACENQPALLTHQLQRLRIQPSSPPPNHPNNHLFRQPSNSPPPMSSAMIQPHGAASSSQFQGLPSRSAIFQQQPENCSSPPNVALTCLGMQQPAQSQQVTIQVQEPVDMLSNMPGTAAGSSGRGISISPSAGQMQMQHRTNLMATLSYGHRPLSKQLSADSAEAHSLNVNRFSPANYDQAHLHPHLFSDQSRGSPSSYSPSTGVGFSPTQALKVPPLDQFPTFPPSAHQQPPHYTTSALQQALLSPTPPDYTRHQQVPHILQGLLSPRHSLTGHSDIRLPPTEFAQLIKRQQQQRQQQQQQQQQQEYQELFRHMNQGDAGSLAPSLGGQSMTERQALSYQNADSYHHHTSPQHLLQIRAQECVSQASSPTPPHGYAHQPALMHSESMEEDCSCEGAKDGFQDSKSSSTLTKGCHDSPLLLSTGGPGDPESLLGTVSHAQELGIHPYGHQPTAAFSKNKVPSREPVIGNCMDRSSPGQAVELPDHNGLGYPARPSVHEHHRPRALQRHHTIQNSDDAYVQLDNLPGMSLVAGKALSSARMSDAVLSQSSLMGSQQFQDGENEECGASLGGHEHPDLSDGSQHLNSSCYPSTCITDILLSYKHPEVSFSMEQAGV
# UniProt Q9Y3F4: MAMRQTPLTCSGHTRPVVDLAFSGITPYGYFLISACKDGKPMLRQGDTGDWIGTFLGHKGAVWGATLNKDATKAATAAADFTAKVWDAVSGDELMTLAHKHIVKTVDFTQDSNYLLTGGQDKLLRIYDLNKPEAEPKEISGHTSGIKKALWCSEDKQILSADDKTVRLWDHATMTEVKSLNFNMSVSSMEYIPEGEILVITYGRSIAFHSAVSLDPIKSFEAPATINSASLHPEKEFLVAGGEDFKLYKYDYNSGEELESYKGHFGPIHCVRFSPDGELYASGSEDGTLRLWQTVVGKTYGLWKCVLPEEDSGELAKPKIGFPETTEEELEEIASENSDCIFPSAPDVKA
# The entries are a selection whose mix differs from that of the whole data set.
# Compound: COC(=O)C#Cc1ccccc1 [methyl 3-phenylpropiolate]
# Assay: log2 ratio of iodoacetamide-alkyne labeling of the cysteine site, DMSO over compound (competition); higher = stronger covalent engagement of the cysteine by the compound, active = 1 or more
# Settings: 500 µM; treatment time 1 h; system: HEK293T cell lysate
# Method in brief: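 HEK293T lysate at 2 mg/mL was treated with vehicle or electrophile (500 µM) for 1 h at ambient temperature, then labelled with iodoacetamide alkyne (1 h), clicked to sCIP-TMT reagents, pooled, digested with trypsin overnight at 37 °C, enriched on streptavidin and eluted with acid. Peptides were analysed by Orbitrap Eclipse LC-MS/MS with FAIMS and quantified in FragPipe, using duplicate channels and three replicates, with cysteines quantified in only one replicate excluded. The log2 competition ratio for each cysteine is the mean control-channel reporter intensity divided by the mean compound-channel reporter intensity.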
row,Target,log2 ratio of iodoacetamide-alkyne labeling
1,HECTD1 C1389 (UniProt Q9ULT8),inactive: 0.795
2,UniProt Q9UKA8_C239,inactive: -0.0281
3,STX8 C14 (UniProt Q9UNK0),inactive: -0.148
4,NISCH C436 (UniProt Q9Y2I1),inactive: 0.294
5,TPX2 C364 (UniProt Q9ULW0),inactive: 0.768
6,COPS3 C383 (UniProt Q9UNS2),inactive: 0.264
7,EXOC6B C68 (UniProt Q9Y2D4),inactive: -0.0384
8,HERC5 C424 (UniProt Q9UII4),inactive: 0.565
9,BAZ2A C1480 (UniProt Q9UIF9),inactive: 0.257
10,EXOSC1 C15 (UniProt Q9Y3B2),inactive: 0.278
11,PRPF19 C114 (UniProt Q9UMS4),inactive: 0.209
12,CHORDC1 C5 (UniProt Q9UHD1),inactive: -0.0481
13,STUB1 C244 (UniProt Q9UNE7),inactive: 0.47
14,PRR12 C173 (UniProt Q9ULL5),inactive: 0.618
15,DDX20 C181 (UniProt Q9UHI6),inactive: 0.42
16,ACIN1 C546 (UniProt Q9UKV3),inactive: 0.343
17,SCML2 C324 (UniProt Q9UQR0),inactive: 0.501
18,GNE C357 (UniProt Q9Y223),inactive: 0.234
19,LNPEP C35 (UniProt Q9UIQ6),inactive: 0.283

# Copied from the list.
# log2 ratio of iodoacetamide-alkyne labeling, PRPF19 C114 (UniProt Q9UMS4) is entered as inactive: 0.209
# log2 ratio of iodoacetamide-alkyne labeling, ACIN1 C546 (UniProt Q9UKV3) is entered as inactive: 0.343

# (continued)

row,Target,log2 ratio of iodoacetamide-alkyne labeling
1,NOSIP C8 (UniProt Q9Y314),inactive: 0.701
2,UniProt Q9UK61_C429,inactive: 0.233
3,UniProt Q9Y448_C296,inactive: -0.0325
4,PSMD13 C357 (UniProt Q9UNM6),inactive: 0.191
5,RRP7A C82 (UniProt Q9Y3A4),inactive: 0.831
6,COPS3 C25 (UniProt Q9UNS2),inactive: 0.12
7,UniProt Q9UHD8_C248,inactive: 0.218
8,LUC7L2 C348 (UniProt Q9Y383),inactive: 0.415
9,NUP50 C165 (UniProt Q9UKX7),inactive: 0.249
10,UniProt Q9Y2K2_C333,inactive: 0.197
11,UniProt Q9UI30_C33,inactive: 0.087
12,NOC2L C585 (UniProt Q9Y3T9),inactive: 0.265
13,MINPP1 C475 (UniProt Q9UNW1),inactive: 0.23
14,STRAP C340 (UniProt Q9Y3F4),inactive: -0.0306
15,NUP50 C181 (UniProt Q9UKX7),inactive: -0.0096
16,LUC7L2 C97 (UniProt Q9Y383),inactive: -0.0874
17,PSMD13 C182 (UniProt Q9UNM6),inactive: 0.303
18,DCTN4 C41 (UniProt Q9UJW0),inactive: 0.309
